# Values from PubChem BioAssay AID504764 (Drosophila RNAi Screening Center, 2011).
# Test: 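Genes whose knock-down alters Notch-dependent transcription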 (primary screen)
# Cell system: Drosophila Kc167 cells
# Reagents: long dsRNA against Drosophila genes
# Time to read-out: about 5 days (4 days dsRNA, then 24 h after transfection)
# Treatment: transfection of constitutively active membrane-tethered Notch lacking the extracellular domain, read 24 h later
# Detection: 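Light from a Notch-responsive E(spl)m3 luciferase reporter under active Notch, with control-promoter and no-Notch reporter wells to normalise; raw counts from paired wells a and b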
# Reading the numbers: induced reporter light, run 1, well a and induced reporter light, run 1, well b: higher = more light from the Notch target reporter with active Notch; control promoter light, run 1, well a and control promoter light, run 1, well b: higher = more light from the viral control promoter (cell number, transfection, viability); uninduced reporter light, run 1, well a: higher = more light from the Notch target reporter without active Notch
# Rule for the call: 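Hit if the duplicate-averaged log2 ratio of induced to control-promoter light gives a plate-wise z beyond ±2, or induced to uninduced beyond ±1.8; weak-control or discordant-duplicate wells dropped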
# Calls: active = modifier hit (raised or lowered Notch signal); inactive = not a hit
# In all, the deposit lists about 22,000 reagents; this is a random part of those with a known target gene and a result. Of all reagents, 403 (1.9%) are marked active. 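Unnormalised raw counts per well; ratio z-scores behind the hit calls and whether each hit raises or lowers signal are not deposited.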 Names joined by + are all predicted targets of the reagent. Not given: the amount of reagent.
Gene,PubChem SID,"induced reporter light, run 1, well a","induced reporter light, run 1, well b","control promoter light, run 1, well a","control promoter light, run 1, well b","uninduced reporter light, run 1, well a",Outcome
DhpD,SID104192080,1.37e5,1.01e5,80880,79300,8135,inactive
twr,SID104192283,45035,43310,37175,38420,3370,inactive
Rap1,SID104188478,82870,84180,1.60e5,2.05e5,7445,inactive
CG40378 (retired record),SID104200750,2.55e5,2.14e5,3.39e5,3.56e5,19560,inactive
CG11257,SID104185860,98775,1.02e5,1.33e5,1.42e5,9535,inactive
Csk,SID104192653,1.12e5,1.23e5,1.35e5,1.22e5,9775,inactive
Csk,SID104195015,26525,21060,16460,14765,5890,inactive
Mocs2A + Mocs2B,SID104193489,2.61e5,2.22e5,3.33e5,2.82e5,14215,inactive
Mocs2A + Mocs2B,SID104194011,1.53e5,1.69e5,2.60e5,1.68e5,14080,inactive
CG42539 (retired record),SID104193483,1.75e5,1.65e5,1.37e5,1.37e5,12935,inactive
CG42539 (retired record),SID104201331,,,,,,inactive
moody,SID104198307,89035,1.13e5,1.68e5,1.76e5,8740,inactive
CG15286,SID104181699,71135,94695,68540,73130,8990,inactive
CG10089,SID104189486,80815,76470,85070,68035,6475,inactive
CG10089,SID104189487,2.23e5,1.71e5,2.91e5,2.09e5,15735,inactive
CG7248,SID104190580,1.01e5,80175,1.06e5,1.01e5,4120,inactive
CG30411,SID104183796,87580,97755,1.34e5,1.30e5,5070,inactive
CG4286,SID104184251,46855,44530,57350,51785,2125,inactive
CG14270,SID104197705,1.49e5,1.55e5,3.09e5,3.17e5,10788,inactive
Polr3I,SID104199714,84765,92310,72445,39865,7650,inactive
CG2120,SID104197999,1.08e5,1.26e5,2.86e5,1.93e5,10140,inactive
MSBP,SID104199938,1.97e5,1.81e5,2.26e5,2.16e5,12465,inactive
Or22b,SID104180557,1.12e5,1.01e5,1.10e5,67960,9428,inactive
CG8854,SID104187080,1.77e5,1.58e5,1.83e5,1.56e5,13450,inactive
CG15879,SID104188279,1.19e5,1.49e5,2.19e5,1.95e5,6828,inactive
CG33775,SID104185145,1.77e5,1.83e5,2.90e5,3.04e5,17005,inactive
CG8321,SID104186940,1.84e5,1.44e5,1.57e5,1.31e5,11590,inactive
CG9372,SID104190860,1.59e5,1.22e5,1.16e5,1.07e5,8550,inactive
CG10477,SID104189524,2.64e5,2.30e5,2.58e5,2.69e5,10900,inactive
opm,SID104199933,1.05e5,90315,1.30e5,1.15e5,5505,inactive
Dref,SID104183111,1.16e5,1.38e5,1.18e5,1.04e5,7875,inactive
crim,SID104190365,1.53e5,1.49e5,78580,22015,9420,active
CG32576 + UQCR-14,SID104199662,42460,36965,59625,59690,6800,inactive
CG14538 (retired record),SID104182188,1.22e5,1.47e5,96555,1.23e5,22025,inactive
